Measurements published in the supplement of paper PMC7661543.
Differences between knockout arms are mostly noise.

Test system: HCC-38
Test: relative cell number vs DMSO control (72 h) (% of DMSO); higher = less growth inhibition (more cells)
Procedure: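 QMAP-Seq: a pool of 5 breast cancer cell lines (ZR-75-1, SKBR3, HCC-38, MDA-MB-231, BT-20), each carrying 12 doxycycline-inducible Cas9 sgRNA perturbations (11 knockouts plus non-targeting sgNT), was treated with compounds for 72 h at four 10-fold doses (10 nM-10 uM or 1 nM-1 uM range). Barcodes were amplified and sequenced, and cell number was interpolated from 293T spike-in standard curves. The result is expressed as % of the median of DMSO wells. Two biological replicates.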

COc1cc2nccc(Oc3ccc(NC(=O)NC4CC4)c(Cl)c3)c2cc1C(N)=O [Lenvatinib]
Settings | relative cell number
sgRNA knockout: sgATF3, 10 nM | 95.4
sgRNA knockout: sgATF3, 100 nM | 111
sgRNA knockout: sgATF3, 1000 nM | 106
sgRNA knockout: sgATF3, 10000 nM | 70.1
sgRNA knockout: sgATF4, 10 nM | 92.5
sgRNA knockout: sgATF4, 100 nM | 102
sgRNA knockout: sgATF4, 1000 nM | 93.1
sgRNA knockout: sgATF4, 10000 nM | 68.3
sgRNA knockout: sgATF6, 10 nM | 110
sgRNA knockout: sgATF6, 100 nM | 115
sgRNA knockout: sgATF6, 1000 nM | 117
sgRNA knockout: sgATF6, 10000 nM | 72.7
sgRNA knockout: sgATG7, 10 nM | 92.7
sgRNA knockout: sgATG7, 100 nM | 103
sgRNA knockout: sgATG7, 1000 nM | 96.8
sgRNA knockout: sgATG7, 10000 nM | 74.9
sgRNA knockout: sgERN1, 10 nM | 88.6
sgRNA knockout: sgERN1, 100 nM | 106
sgRNA knockout: sgERN1, 1000 nM | 93.2
sgRNA knockout: sgERN1, 10000 nM | 69.36
sgRNA knockout: sgHSF1, 10 nM | 110
sgRNA knockout: sgHSF1, 100 nM | 120
sgRNA knockout: sgHSF1, 1000 nM | 117
sgRNA knockout: sgHSF1, 10000 nM | 91.7
sgRNA knockout: sgHSF2, 10 nM | 102
sgRNA knockout: sgHSF2, 100 nM | 124
sgRNA knockout: sgHSF2, 1000 nM | 111
sgRNA knockout: sgHSF2, 10000 nM | 79.2
sgRNA knockout: sgKEAP1, 10 nM | 108
sgRNA knockout: sgKEAP1, 100 nM | 134.8
sgRNA knockout: sgKEAP1, 1000 nM | 116
sgRNA knockout: sgKEAP1, 10000 nM | 85.66
sgRNA knockout: sgNFE2L2, 10 nM | 85.6
sgRNA knockout: sgNFE2L2, 100 nM | 105
sgRNA knockout: sgNFE2L2, 1000 nM | 94.6
sgRNA knockout: sgNFE2L2, 10000 nM | 67.4
sgRNA knockout: sgSLC35F2, 10 nM | 99.8
sgRNA knockout: sgSLC35F2, 100 nM | 108.2
sgRNA knockout: sgSLC35F2, 1000 nM | 95.8
sgRNA knockout: sgSLC35F2, 10000 nM | 74.3
sgRNA knockout: sgXBP1, 10 nM | 97.3
sgRNA knockout: sgXBP1, 100 nM | 107
sgRNA knockout: sgXBP1, 1000 nM | 95.4
sgRNA knockout: sgXBP1, 10000 nM | 74.6

CN1CCN(CCOc2cc(OC3CCOCC3)c3c(Nc4c(Cl)ccc5c4OCO5)ncnc3c2)CC1 [Saracatinib]
Settings | relative cell number
sgRNA knockout: sgATF3, 10 nM | 79.9
sgRNA knockout: sgATF3, 100 nM | 92.1
sgRNA knockout: sgATF3, 1000 nM | 80.4
sgRNA knockout: sgATF3, 10000 nM | 67
sgRNA knockout: sgATF4, 10 nM | 79.3
sgRNA knockout: sgATF4, 100 nM | 82.6
sgRNA knockout: sgATF4, 1000 nM | 81.1
sgRNA knockout: sgATF4, 10000 nM | 70.4
sgRNA knockout: sgATF6, 10 nM | 86.9
sgRNA knockout: sgATF6, 100 nM | 98.2
sgRNA knockout: sgATF6, 1000 nM | 81.7
sgRNA knockout: sgATF6, 10000 nM | 59.8
sgRNA knockout: sgATG7, 10 nM | 80.3
sgRNA knockout: sgATG7, 100 nM | 89.4
sgRNA knockout: sgATG7, 1000 nM | 79.5
sgRNA knockout: sgATG7, 10000 nM | 66.2
sgRNA knockout: sgERN1, 10 nM | 80.5
sgRNA knockout: sgERN1, 100 nM | 97.4
sgRNA knockout: sgERN1, 1000 nM | 76.6
sgRNA knockout: sgERN1, 10000 nM | 63.9
sgRNA knockout: sgHSF1, 10 nM | 97.5
sgRNA knockout: sgHSF1, 100 nM | 87.7
sgRNA knockout: sgHSF1, 1000 nM | 72.2
sgRNA knockout: sgHSF1, 10000 nM | 53.5
sgRNA knockout: sgHSF2, 10 nM | 83
sgRNA knockout: sgHSF2, 100 nM | 85.1
sgRNA knockout: sgHSF2, 1000 nM | 81
sgRNA knockout: sgHSF2, 10000 nM | 67
sgRNA knockout: sgKEAP1, 10 nM | 101
sgRNA knockout: sgKEAP1, 100 nM | 95.1
sgRNA knockout: sgKEAP1, 1000 nM | 93
sgRNA knockout: sgKEAP1, 10000 nM | 51.2
sgRNA knockout: sgNFE2L2, 10 nM | 75.1
sgRNA knockout: sgNFE2L2, 100 nM | 79.9
sgRNA knockout: sgNFE2L2, 1000 nM | 70.3
sgRNA knockout: sgNFE2L2, 10000 nM | 66.8
sgRNA knockout: sgSLC35F2, 10 nM | 81.6
sgRNA knockout: sgSLC35F2, 100 nM | 96.1
sgRNA knockout: sgSLC35F2, 1000 nM | 77.7
sgRNA knockout: sgSLC35F2, 10000 nM | 67.46
sgRNA knockout: sgXBP1, 10 nM | 78.87
sgRNA knockout: sgXBP1, 100 nM | 89
sgRNA knockout: sgXBP1, 1000 nM | 81.5
sgRNA knockout: sgXBP1, 10000 nM | 69

CN(C)c1cc(NC(=O)CNC(C)(C)C)c(O)c2c1C[C@H]1C[C@H]3[C@H](N(C)C)C(O)=C(C(N)=O)C(=O)[C@@]3(O)C(O)=C1C2=O [Tigecycline]
Settings | relative cell number
sgRNA knockout: sgATF3, 10 nM | 101.3
sgRNA knockout: sgATF3, 100 nM | 109
sgRNA knockout: sgATF3, 1000 nM | 99.7
sgRNA knockout: sgATF3, 10000 nM | 102.1
sgRNA knockout: sgATF4, 10 nM | 91.5
sgRNA knockout: sgATF4, 100 nM | 109
sgRNA knockout: sgATF4, 1000 nM | 85.3
sgRNA knockout: sgATF4, 10000 nM | 122
sgRNA knockout: sgATF6, 10 nM | 97.4
sgRNA knockout: sgATF6, 100 nM | 105
sgRNA knockout: sgATF6, 1000 nM | 105
sgRNA knockout: sgATF6, 10000 nM | 96.1
sgRNA knockout: sgATG7, 10 nM | 91.5
sgRNA knockout: sgATG7, 100 nM | 97.3
sgRNA knockout: sgATG7, 1000 nM | 83.2
sgRNA knockout: sgATG7, 10000 nM | 104
sgRNA knockout: sgERN1, 10 nM | 96.1
sgRNA knockout: sgERN1, 100 nM | 103
sgRNA knockout: sgERN1, 1000 nM | 99.4
sgRNA knockout: sgERN1, 10000 nM | 93.2
sgRNA knockout: sgHSF1, 10 nM | 115
sgRNA knockout: sgHSF1, 100 nM | 78
sgRNA knockout: sgHSF1, 1000 nM | 97.5
sgRNA knockout: sgHSF1, 10000 nM | 109
sgRNA knockout: sgHSF2, 10 nM | 96.9
sgRNA knockout: sgHSF2, 100 nM | 114
sgRNA knockout: sgHSF2, 1000 nM | 101
sgRNA knockout: sgHSF2, 10000 nM | 101
sgRNA knockout: sgKEAP1, 10 nM | 116
sgRNA knockout: sgKEAP1, 100 nM | 89
sgRNA knockout: sgKEAP1, 1000 nM | 124
sgRNA knockout: sgKEAP1, 10000 nM | 115
sgRNA knockout: sgNFE2L2, 10 nM | 89
sgRNA knockout: sgNFE2L2, 100 nM | 109
sgRNA knockout: sgNFE2L2, 1000 nM | 83.2
sgRNA knockout: sgNFE2L2, 10000 nM | 107
sgRNA knockout: sgSLC35F2, 10 nM | 101
sgRNA knockout: sgSLC35F2, 100 nM | 90.7
sgRNA knockout: sgSLC35F2, 1000 nM | 101
sgRNA knockout: sgSLC35F2, 10000 nM | 105
sgRNA knockout: sgXBP1, 10 nM | 93.5
sgRNA knockout: sgXBP1, 100 nM | 120
sgRNA knockout: sgXBP1, 1000 nM | 90.1
sgRNA knockout: sgXBP1, 10000 nM | 109
